Test results from article PMC11942402.
Results are given in words; binding and its absence hold for the method and conditions named. In cells and extracts the contact can be indirect. Some binding calls cover weakened binding; strength is not graded here.

Sequences of proteins named here, by UniProt entry; tags and fusion partners are left off.
UniProt Q04207: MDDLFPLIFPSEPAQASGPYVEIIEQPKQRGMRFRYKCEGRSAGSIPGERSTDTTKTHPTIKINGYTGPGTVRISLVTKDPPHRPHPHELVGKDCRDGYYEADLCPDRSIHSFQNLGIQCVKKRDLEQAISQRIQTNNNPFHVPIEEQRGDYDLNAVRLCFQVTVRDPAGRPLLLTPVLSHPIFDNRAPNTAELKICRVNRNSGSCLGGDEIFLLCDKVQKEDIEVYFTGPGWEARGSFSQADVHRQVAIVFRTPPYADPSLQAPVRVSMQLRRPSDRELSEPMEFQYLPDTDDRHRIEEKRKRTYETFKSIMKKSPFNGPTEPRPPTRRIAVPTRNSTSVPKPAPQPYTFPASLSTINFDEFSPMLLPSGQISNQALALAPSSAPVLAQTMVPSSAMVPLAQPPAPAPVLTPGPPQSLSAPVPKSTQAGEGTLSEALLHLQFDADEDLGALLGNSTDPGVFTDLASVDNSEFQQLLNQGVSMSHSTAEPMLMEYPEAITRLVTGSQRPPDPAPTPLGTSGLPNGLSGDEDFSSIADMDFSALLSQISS
UniProt P01101: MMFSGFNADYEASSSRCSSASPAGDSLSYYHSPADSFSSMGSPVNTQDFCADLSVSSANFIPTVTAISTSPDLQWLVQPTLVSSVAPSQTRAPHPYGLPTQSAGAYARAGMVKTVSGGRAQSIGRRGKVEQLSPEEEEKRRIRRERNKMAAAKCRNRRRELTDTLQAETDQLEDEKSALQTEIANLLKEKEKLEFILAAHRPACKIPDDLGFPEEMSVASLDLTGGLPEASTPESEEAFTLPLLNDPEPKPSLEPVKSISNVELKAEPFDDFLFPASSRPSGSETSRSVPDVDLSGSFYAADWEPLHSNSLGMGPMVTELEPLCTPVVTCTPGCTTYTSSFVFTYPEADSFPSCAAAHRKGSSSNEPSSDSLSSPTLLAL

Target: NF-κB p65 (mouse (endogenous in BV-2)) (UniProt Q04207)
Test: co-IP; BV-2 microglia treated with NA (3 µM) and Pg LPS (30 µg/mL); cell lysates (1 mg protein) immunoprecipitated with rabbit anti-NF-κB p65 antibodies (Pierce co-immunoprecipitation kit), normal IgG as control; Western blot with anti-c-Fos and anti-p65

binding: binds
Substance: AP-1 c-Fos (from UniProt P01101 1-380)
